Data as given in PubChem BioAssay AID1259405 (NCATS, 2018)

- Aim: 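Mouse-designed siRNAs used to find CHO productivity engineering targets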 (primary screen)
- Cells: Chinese hamster CHO-K1 ovary cells with stable secreted eGFP expression
- Knock-down reagent: single siRNA against mouse genes, 0.8 pmol siRNA per well (2 µl of 400 nM stock)
- Time to read-out: 3 days
- Measurement: 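Per-well intracellular GFP measured by laser scanning cytometry, plus viability from ATP luminescence, each relative to plate median of non-targeting control wells, in %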
- Scale: GFP, % of control: higher = more GFP per well, higher productivity; viability (ATP), % of control: higher = more viable cells (more ATP)
- Rule for the call: 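a knock-down is called active if GFP reaches 120% or more of non-targeting control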
Shown is one part, drawn at random, of about 50,000 reagents. In the full data, about 4,000 (8%) are marked active. 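Mouse siRNA library applied to hamster cells; one well for each siRNA.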 The numbers tell different reagents against one gene apart.

Scaper (S phase cyclin A-associated protein in the ER) #1 scored GFP, % of control 42; viability (ATP), % of control 73.4; inactive.
Against Scaper (S phase cyclin A-associated protein in the ER) #2 the deposit lists GFP, % of control 150; viability (ATP), % of control 64.7; active.
Depletion of Scaper (S phase cyclin A-associated protein in the ER) #3 gave: GFP, % of control 89.9; viability (ATP), % of control 88.2; inactive.
After knock-down of Uba52 (ubiquitin A-52 residue ribosomal protein fusion product 1) #1, the screen gave GFP, % of control 77.5; viability (ATP), % of control 87.3; inactive.
For Uba52 (ubiquitin A-52 residue ribosomal protein fusion product 1) #2, the values are GFP, % of control 3.21; viability (ATP), % of control 3.17; inactive.
With knock-down of Uba52 (ubiquitin A-52 residue ribosomal protein fusion product 1) #3 the results were GFP, % of control 75.6; viability (ATP), % of control 69.6; inactive.

2 consecutive entries already listed, quoted:
Uba52 (ubiquitin A-52 residue ribosomal protein fusion product 1) #1 — GFP, % of control: 77.5; viability (ATP), % of control: 87.3; outcome: inactive
Uba52 (ubiquitin A-52 residue ribosomal protein fusion product 1) #2 — GFP, % of control: 3.21; viability (ATP), % of control: 3.17; outcome: inactive

The results go on.
Ttf2 (transcription termination factor, RNA polymerase II) #1 gave GFP, % of control 41.6; viability (ATP), % of control 47.9; inactive.
After knock-down of Ttf2 (transcription termination factor, RNA polymerase II) #2, the screen gave GFP, % of control 93.4; viability (ATP), % of control 66.1; inactive.
Ttf2 (transcription termination factor, RNA polymerase II) #3 showed GFP, % of control 141; viability (ATP), % of control 100; active.
With knock-down of Col14a1 (collagen, type XIV, alpha 1) #1 the results were GFP, % of control 75.6; viability (ATP), % of control 76.3; inactive.
Col14a1 (collagen, type XIV, alpha 1) #2 gave GFP, % of control 75.4; viability (ATP), % of control 64; inactive.
Knock-down of Col14a1 (collagen, type XIV, alpha 1) #3 came out at: GFP, % of control 69.5; viability (ATP), % of control 45.2; inactive.
Socs4 (suppressor of cytokine signaling 4) #1 showed GFP, % of control 107; viability (ATP), % of control 84.2; inactive.
After knock-down of Socs4 (suppressor of cytokine signaling 4) #2, the screen gave GFP, % of control 88.3; viability (ATP), % of control 69.4; inactive.
With knock-down of Socs4 (suppressor of cytokine signaling 4) #3, the screen gave GFP, % of control 81.3; viability (ATP), % of control 69.8; inactive.
With knock-down of Tlcd4 (TLC domain containing 4) #1 the results were GFP, % of control 93.2; viability (ATP), % of control 79.2; inactive.
Tlcd4 (TLC domain containing 4) #2 gave GFP, % of control 87.4; viability (ATP), % of control 61.1; inactive.
Tlcd4 (TLC domain containing 4) #3 gave GFP, % of control 62.2; viability (ATP), % of control 58.4; inactive.
